{"source": "patent US5827737A", "about": "“In vitro activation of cytotoxic T cells” (The Scripps Research Institute, priority 1996, dated 1998)", "key": {"[1]": {"biological_target": "T1, H2-K^b co-expressed with murine β2 (Mus musculus, UniProt P01901)", "T1 sequence (P01901 22-369)": "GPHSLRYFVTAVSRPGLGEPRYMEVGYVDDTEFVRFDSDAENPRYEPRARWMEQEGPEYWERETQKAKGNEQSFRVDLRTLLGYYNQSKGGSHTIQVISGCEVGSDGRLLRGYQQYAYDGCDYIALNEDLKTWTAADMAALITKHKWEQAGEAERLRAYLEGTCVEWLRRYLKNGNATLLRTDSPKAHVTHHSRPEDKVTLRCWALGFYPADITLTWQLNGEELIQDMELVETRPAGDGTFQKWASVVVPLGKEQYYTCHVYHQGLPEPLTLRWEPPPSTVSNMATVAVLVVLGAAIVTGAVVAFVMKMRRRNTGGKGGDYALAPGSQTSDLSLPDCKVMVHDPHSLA", "T1 sequence (P01887 21-119 partner)": "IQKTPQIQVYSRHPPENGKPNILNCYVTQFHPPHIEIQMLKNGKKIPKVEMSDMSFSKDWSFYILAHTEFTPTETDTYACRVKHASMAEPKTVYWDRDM", "assay": "Thermostability of Class I heavy chains in TX100 lysates (temperature at which 50% are stable)", "type": "binding", "conditions": "one hour incubation"}, "[2]": {"biological_target": "H2-K^b co-expressed with human β2 (Mus musculus, UniProt P01901)", "assay": "Thermostability of Class I heavy chains in TX100 lysates (temperature at which 50% are stable)", "type": "binding, murine", "conditions": "one hour incubation"}, "[3]": {"biological_target": "T2, \"empty\" Class I K^b molecules (Mus musculus, UniProt P01901)", "T2 construct": "endogenous in cells; host or cells: RMA-S cells cultured at 26° C., detergent lysate", "T2 sequence (P01901 22-369)": "T1 sequence (P01901 22-369)", "T2 sequence (P01887 21-119 partner)": "T1 sequence (P01887 21-119 partner)", "assay": "Peptide binding assay: heat challenge of empty K^b in RMA-S lysate, Y3 immunoprecipitation", "set-up": "species or system murine"}, "[4]": {"biological_target": "T3, K^b /β2 (Mus musculus, UniProt P01901)", "T3 sequence (P01901 22-369)": "T1 sequence (P01901 22-369)", "T3 sequence (P01887 21-119 partner)": "T1 sequence (P01887 21-119 partner)", "assay": "30° C. temperature challenge of Drosophila cell lysates, immunoprecipitation, SDS-PAGE", "type": "binding, murine", "conditions": "one hour at 30° C., lysate"}, "[5]": {"biological_target": "T4, D^b /β2 (Mus musculus, UniProt P01899)", "T4 sequence (P01899 25-362)": "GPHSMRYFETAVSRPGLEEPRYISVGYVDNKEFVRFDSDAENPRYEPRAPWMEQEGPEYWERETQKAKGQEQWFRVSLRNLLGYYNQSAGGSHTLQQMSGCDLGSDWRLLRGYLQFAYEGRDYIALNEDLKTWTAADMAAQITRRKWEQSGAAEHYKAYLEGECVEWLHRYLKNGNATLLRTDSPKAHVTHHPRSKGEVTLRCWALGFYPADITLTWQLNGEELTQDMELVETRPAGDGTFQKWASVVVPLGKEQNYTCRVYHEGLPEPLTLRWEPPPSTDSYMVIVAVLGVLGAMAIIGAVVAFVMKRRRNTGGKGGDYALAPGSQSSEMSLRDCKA", "T4 sequence (P01887 21-119 partner)": "T1 sequence (P01887 21-119 partner)", "assay": "30° C. temperature challenge of Drosophila cell lysates, immunoprecipitation, SDS-PAGE", "type": "binding, murine", "conditions": "one hour at 30° C., lysate"}, "[6]": {"biological_target": "T5, murine Class I molecules expressed on Drosophila cells (Mus musculus, UniProt P01901)", "T5 sequence (P01901 22-369)": "T1 sequence (P01901 22-369)", "T5 sequence (P01887 21-119 partner)": "T1 sequence (P01887 21-119 partner)", "assay": "37° C. thermostability of murine Class I on Drosophila cells grown in Excell 400", "type": "cell-based", "conditions": "peptide added to cells cultured in Excell"}}, "note": "At least one peptide structure holds a part that was inferred or is arguable (an end, a ring closure or a residue).", "data": [{"smiles": "CC[C@H](C)[C@H](NC(=O)[C@@H](NC(=O)[C@@H](N)CO)[C@@H](C)CC)C(=O)N[C@@H](CC(N)=O)C(=O)N[C@@H](Cc1ccccc1)C(=O)N[C@@H](CCC(=O)O)C(=O)N[C@@H](CCCCN)C(=O)N[C@@H](CC(C)C)C(=O)O", "note": "[OVA-8]", "values": [{"measurement": "temperature at which 50% of the Class I MHC heavy chains are stable, Mouse β2", "setting": "[1]", "value": 45, "unit": "°C"}, {"measurement": "temperature at which 50% of the Class I MHC heavy chains are stable, Human β2", "setting": "[2]", "value": 47, "unit": "°C"}, {"measurement": "binding to K^b molecules in vitro", "setting": "[3]", "value": "binds strongly"}, {"measurement": "prevention of heat-induced dissociation of the K^b β 2M complex", "setting": "[3]; 30° C., one hour, detergent", "value": "prevents the subunit dissociation"}, {"measurement": "K^b molecules remaining after the heat treatment", "setting": "[3]; 30° C., one hour, percentage of K^b /OVA-8 complexes recovered, peptide 75 μM", "value": "remained intact"}, {"measurement": "recovery of K^b molecules after overnight incubation at 4° C.", "setting": "[3]; RMA-S lysate", "value": "quantitatively recovered"}, {"measurement": "stabilization of K^b /β2 to the temperature challenge", "setting": "[4]", "value": "Dramatic stabilization"}, {"measurement": "stabilization of D^b /β2 to the temperature challenge", "setting": "[5]", "value": "does not achieve this"}, {"measurement": "37° C. thermostability of K^b /β2", "setting": "[6]", "value": 37, "unit": "°C thermostability"}]}]}
